Results: patent publication US11433013B2, “Peptide for preventing skin damage caused by air pollutants and for anti-aging, and use thereof” (CAREGEN CO., LTD., priority 2019, dated 2022)
Part of at least one peptide drawing is inferred or uncertain, most often the ends. No end group written: not given here.

Tests used:
AhR [1] = assay: AhR translocation to nucleus, Western blotting of nucleoproteins, HaCaT cells; format: cell-based, human; settings: about 1 hour
AhR [2] = assay: AhR translocation to nucleus, Western blotting of nucleoproteins, A549 cells; format: cell-based, human; settings: CSE, vs negative control (FIG. 1D)
COX-2 [3] = assay: COX-2 gene expression by RT-PCR, HaCaT cells treated with pollutants; format: cell-based, human
MMP-1 [4] = assay: MMP-1 protein amount by Western blotting, HaCaT cells treated with pollutants; format: cell-based, human
COX-2 [5] = assay: COX-2 protein amount by Western blotting, HaCaT cells treated with pollutants; format: cell-based, human
p-Akt [6] = assay: Akt phosphorylation by Western blotting, HaCaT cells; format: cell-based, human; settings: peptide 10, 50, 100 μM, about 15 minutes (FIG. 5A)
p-ERK [7] = assay: ERK phosphorylation by Western blotting, HaCaT cells; format: cell-based, human; settings: peptide 10, 50, 100 μM, about 15 minutes (FIG. 5A)
SIRT1 [8] = assay: SIRT1 gene expression by RT-PCR, HaCaT cells; format: cell-based, human; settings: peptide 10, 50, 100 μM, about 24 hours (FIG. 5B)
p-Akt [9] = assay: Akt phosphorylation by Western blotting, NIH3T3 cells; format: cell-based, mouse; settings: peptide 10, 50, 100 μM, about 15 minutes (FIG. 6A)
p-ERK [10] = assay: ERK phosphorylation by Western blotting, NIH3T3 cells; format: cell-based, mouse; settings: peptide 10, 50, 100 μM, about 15 minutes (FIG. 6A)
Col1a1 [11] = assay: Collagen (Col1a1) gene expression by RT-PCR, NIH3T3 cells; format: cell-based, mouse; settings: peptide 10, 50, 100 μM, about 24 hours (FIG. 6B)
fibronectin [12] = assay: Fibronectin gene expression by RT-PCR, NIH3T3 cells; format: cell-based, mouse; settings: peptide 10, 50, 100 μM, about 24 hours (FIG. 6B)
elastin [13] = assay: Elastin gene expression by RT-PCR, NIH3T3 cells; format: cell-based, mouse; settings: peptide 10, 50, 100 μM, about 24 hours (FIG. 6B)
SIRT1 [14] = assay: SIRT1 gene expression by RT-PCR, HaCaT cells irradiated with UVB; format: cell-based, human; settings: HaCaT cells irradiated with UVB (FIG. 7)
AQP3 = AQP3 gene expression by RT-PCR, HaCaT cells irradiated with UVB; format: cell-based, human; settings: HaCaT cells irradiated with UVB (FIG. 7)
Col1a1 [15] = assay: Collagen (Col1a1) gene expression by RT-PCR, UV-irradiated NIH3T3 cells; format: cell-based, mouse; settings: 6 J/cm^2 of UVA, peptide 10, 50, 100 μM, about 6 hours after irradiation (FIG. 8A)
fibronectin [16] = assay: Fibronectin gene expression by RT-PCR, UV-irradiated NIH3T3 cells; format: cell-based, mouse; settings: 6 J/cm^2 of UVA, peptide 10, 50, 100 μM, about 6 hours after irradiation (FIG. 8A)
elastin [17] = assay: Elastin gene expression by RT-PCR, UV-irradiated NIH3T3 cells; format: cell-based, mouse; settings: 6 J/cm^2 of UVA, peptide 10, 50, 100 μM, about 6 hours after irradiation (FIG. 8A)
MMP-1 [18] = assay: MMP-1 protein amount by Western blotting, UV-irradiated NIH3T3 cells; format: cell-based, mouse; settings: 6 J/cm^2 of UVA, peptide 10, 50, 100 μM, about 48 hours after irradiation, Western blotting (FIG. 8B)
MMP-2 = MMP-2 by Gelatin zymography, UV-irradiated NIH3T3 cells; format: cell-based, mouse; settings: 6 J/cm^2 of UVA, peptide 10, 50, 100 μM, about 48 hours after irradiation, Gelatin zymography (FIG. 8B)
[19] = PM about 50 μg/cm^2, peptide about 10, 50, 100 μM, about 24 hours (FIG. 3B)
[20] = TCDD about 0.1 μM, peptide about 10, 50, 100 μM, about 24 hours (FIG. 3A)

Sequence: SYSGVLFFLK [SEQ ID NO: 1, SYSGVLFFLK]
- amount of the AhR present in a nucleus (AhR [1]; CSE about 2%, peptide about 10, 50, 100 μM, vs negative control (FIG. 1C)): decreased as a concentration of the peptide increased
- amount of the AhR present in a nucleus (AhR [1]; PM about 50 μg/cm^2, peptide about 10, 50, 100 μM, vs negative control (FIG. 1B)): decreased as a concentration of the peptide increased
- amount of the AhR present in a nucleus (AhR [1]; TCDD about 0.1 μM, peptide about 10, 50, 100 μM, vs negative control (FIG. 1A)): decreased as a concentration of the peptide increased
- amount of the AhR present in a nucleus (AhR [2]): decreased as a concentration of the peptide increased
- expression level of COX-2 (COX-2 [3]; CSE about 2%, peptide about 10, 50, 100 μM, about 2 hours (FIG. 2C)): decreased as a concentration of the peptide increased
- expression level of COX-2 (COX-2 [3]; PM about 25 μg/cm^2, peptide about 10, 50, 100 μM, about 2 hours (FIG. 2B)): decreased as a concentration of the peptide increased
- expression level of COX-2 (COX-2 [3]; TCDD about 0.1 μM, peptide about 10, 50, 100 μM, about 2 hours (FIG. 2A)): decreased as a concentration of the peptide increased
- amount of MMP-1 protein (MMP-1 [4]; [19]): decreased as a concentration of the peptide increased
- amount of MMP-1 protein (MMP-1 [4]; [20]): decreased as a concentration of the peptide increased
- amount of COX-2 protein (COX-2 [5]; [19]): decreased as a concentration of the peptide increased
- amount of COX-2 protein (COX-2 [5]; [20]): decreased as a concentration of the peptide increased
- phosphorylation degree of Akt (p-Akt [6]): gradually increased as the concentration of the peptide increased
- phosphorylation degree of ERK (p-ERK [7]): gradually increased as the concentration of the peptide increased
- expression level of SIRT1 gene (SIRT1 [8]): increased as the concentration of the peptide increased
- phosphorylation degree of Akt (p-Akt [9]): gradually increased as the concentration of the peptide increased
- phosphorylation degree of ERK (p-ERK [10]): gradually increased as the concentration of the peptide increased
- expression level of collagen (Col1a1 [11]): increased depending on the treatment using the peptide of the present invention
- expression level of fibronectin (fibronectin [12]): increased depending on the treatment using the peptide of the present invention
- expression level of elastin (elastin [13]): increased depending on the treatment using the peptide of the present invention
- expression level of SIRT1 gene inhibited by the UVB irradiation (SIRT1 [14]): gradually increased as the concentration of the peptide increased
- expression level of AQP3 gene inhibited by the UVB irradiation (AQP3): gradually increased as the concentration of the peptide increased
- expression level of collagen (Col1a1) gene (Col1a1 [15]): gradually increased as the concentration of the peptide increased
- expression level of fibronectin gene (fibronectin [16]): gradually increased as the concentration of the peptide increased
- expression level of elastin gene (elastin [17]): gradually increased as the concentration of the peptide increased
- protein amount of MMP-1 (MMP-1 [18]): gradually decreased as the concentrations of the peptide increased
- protein amount of MMP-2 (MMP-2): gradually decreased as the concentrations of the peptide increased
